The nature of the first data set: general procedure: peptide synthesis; Kieselguhr supported polydimethylacrylamide resin (0.09 mmol/g loading); DCC/1-hydroxybenzotriazole; pentafluorophenyl esters. As to conditions: coupling step, h.p.l.c.
In the case of “N-[N^1 -[N-(5-aminopentanoyl)-L-phenylalanyl-L-phenylalanyl]4-methyl-1-oxo-2S-(7- oxo-6S-1,8-diazaspiro[5.4]decan-8-yl)pentyl]-L-methionamide”, the “final HPLC purity” value is reported as 100%. With “N-[N^1 -[N-(5-aminopentanoyl)-L-phenylalanyl-L-phenylalanyl]-4-methyl-1-oxo-2R-(6-oxo-5S-1,7-diazaspiro[4.4]nonan-7-yl)pentyl]-L-methionamide”, the “final HPLC purity” value stood at 100%. As to “N-[N^1 -[N-(5-aminopentanoyl)-L-phenylalanyl-L-phenylalanyl]-4-methyl-1-oxo-2S-(6-oxo-5S-1,7-diazaspiro[4.4]nonan-7-yl)-pentyl]-L-tryptophanamide”, the “final HPLC purity” value is reported as 99%.

Turning to “N-[N^1 -[N-(5-aminopentanoyl)-L-phenylalanyl-L-phenylalanyl]-4-methyl-1-oxo-2S-(6-oxo-5S-1,7-diazaspiro[4.4]nonan-7-yl)pentyl]-D-methionamide”, the “final HPLC purity” value was determined as 99%. As for “N-[N^1 -[N-(5-aminopentanoyl)-L-phenylalanyl-L-phenylalanyl]-4-methyl-1-oxo-2S-(6-oxo-5S-1,7-diazaspiro[4.4]nonan-7-yl)pentyl]-L-cyclohexylalanamide”, the “final HPLC purity” value is 99.8%.

Turning to “N-[N^1 -[N-(5-aminopentanoyl)-L-phenylalanyl-L-phenylalanyl]-4-methyl-1-oxo-2S-(6-oxo-5S-1,7-diazaspiro[4.4]nonan-7-yl)pentyl]-L-homophenylalanamide”, the “final HPLC purity” value is recorded as 100%. As to “N-[N^1 -[N-(5-aminopentanoyl)-L-phenylalanyl-L-phenylalanyl]-4-methyl-1-oxo-2S-(6-oxo-5S-1,7-diazaspiro[4.4]nonan-7-yl)pentyl]-L-phenylalanamide”, the “final HPLC purity” value came to 97.6%. As for “N-[N^1 -[pyroglutamyl-L-phenylalanyl-L-phenylalanyl]-4-methyl-1-oxo-2S-(6-oxo-5S- 1,7-diazaspiro[4.4]nonan-7-yl)pentyl]-L-methionamide”, the “final HPLC purity” value turned out to be 99%.

Staying with this data set, now noted: whole synthesis, h.p.l.c., scale of the general procedure 1.5 g resin.
For “N-[N^1 -[L-Arginyl-L-prolyl-L-lysyl-L-prolyl-L-glutaminyl-L-glutaminyl-L-phenylalanyl-L-phenylalanyl]-4-methyl-1-oxo-2S-(6-oxo-5S-1,7-diazaspiro[4.4]nonan-7-yl)-pentyl]-L-tryptophanamide.”, the “final HPLC purity” value is 99%. The same measure, in the same setting: as for “N-[N^1 -[L-glutaminyl-L-glutaminyl-L-phenylalanyl-L-Phenylalanyl]-4-methyl-1-oxo- 2S-(6-oxo-5S-1,7-diazaspiro[4.4]nonan-7-yl)pentyl]-L-tryptophanamide”, the figure is 78%. Consider “N-[N^1 -[L-lysyl-L-prolyl-L-glutaminyl-L-glutaminyl-L-phenylalanyl-L-phenylalanyl]-4-methyl-1-oxo-2S-(6-oxo-5S-1,7-diazaspiro[4.4]nonan-7-yl)pentyl]-L-tryptophanamide”, for which the “final HPLC purity” value was 71%.

“N-[N^1 -[L-phenylalanyl-L-phenylalanyl]-4-methyl-1-oxo-2S-(6-oxo-5S-1,7-diazaspiro[4.4]nonan-7-yl)pentyl]-L-tryptophanamide”: the “final HPLC purity” value is on record as 87%. As to “N-[N^1 -[L-phenylalanyl]-4-methyl-1-oxo-2S-(6-oxo-5S-1,7-diazaspiro[4.4]nonan-7-yl)pentyl]-L-tryptophanamide”, the “final HPLC purity” value came to 80%. On to “N-[N^1 -[L-prolyl-L-glutaminyl-L-glutaminyl-L-phenylalanyl-L-phenylalanyl]-4-methyl-1-oxo-2S-(6-oxo-5S-1,7-diazaspiro[4.4]nonan-7-yl)pentyl]-L-methionamide”, for which the “final HPLC purity” value is on record as 99%. Still for that read-out and setting: as for “N-[N^1 -[L-pyroglutamyl-L-alanyl-L-aspartyl-L-prolyl-L-asparaginyl-L-glutaminyl-L-phenylalanyl-L-tyrosyl]-4-methyl-1-oxo-2S-(6-oxo-5S-1,7-diazaspiro[4.4]nonan-7-yl)pentyl]-L-tryptophanamide”, the figure is 99%; as for “N-[N^1 -[L-pyroglutamyl-L-alanyl-L-aspartyl-L-prolyl-L-asparaginyl-L-lysyl-L-phenylalanyl-L-tyrosyl]-4-methyl-1-oxo-2S-(6-oxo-5S-1,7-diazaspiro[4.4]nonan-7- yl)pentyl]-L-trytophanamide”, 99%. For the substance “N-[N^1 -[L-pyroglutamyl-L-alanyl-L-aspartyl-L-prolyl-L-asparaginyl-L-methionyl-L- phenylalanyl-L-tyrosyl]-4-methyl-1-oxo-2S-(6-oxo-5S-1,7-diazaspiro[4.4]nonan-7-yl)pentyl]-L-tryptophanamide”, the “final HPLC purity” value was determined as 96%. As for “N-[N^1 -[L-pyroglutamyl-L-prolyl-L-aspartyl-L-prolyl-L-asparaginyl-L-lysyl-L-phenylalanyl-L-tyrosyl]-4-methyl-1-oxo-2S-(6-oxo-5S-1,7-diazaspiro[4.4]nonan-7- yl)pentyl]-L-tryptophanamide”, the “final HPLC purity” value is listed as 97%. On to “N-[N^1 -[L-pyroglutamyl-L-prolyl-L-aspartyl-L-prolyl-L-asparagyl-L-alanyl-L-phenylalanyl-L-tyrosyl]-4-methyl-1-oxo-2S-(6-oxo-5S-1,7-diazaspiro[4.4]nonan-7-yl)pentyl]-L-tryptophanamide”, for which the “final HPLC purity” value was determined as 99%. Still for that read-out and setting: as for “N-[N^1 -[L-pyroglutamyl-L-prolyl-L-aspartyl-L-prolyl-L-glutaminyl-L-glutaminyl-L- phenylalanyl-L-phenylalanyl]-4-methyl-1-oxo-2S-(6-oxo-5S-1,7-diazaspiro[4.4]nonan-7-yl)pentyl]-L-tryptophanamide”, the figure is 100%.

As to “N-[N^1 -[pyroglutamyl-L-prolyl-L-lysyl-L-prolyl-L-glutaminyl-L-glutaminyl-L-phenylalanyl-L-phenylalanyl]-4-methyl-1-oxo-2S-(6-oxo-5S-1,7-diazaspiro[4.4]nonan-7-yl)pentyl]-L-tryptophanamide”, the “final HPLC purity” value came to 97%.

On to “N-[N^1 [L-arginyl-L-prolyl-L-lysyl-L-prolyl-L-glutaminyl-L-glutaminyl-L-phenylalanyl-L-phenylalanyl]-4-methyl-1-oxo-2S-(6-oxo-5S-1,7-diazaspiro[4.4]nonan-7- yl)pentyl]-L-methionamide”, for which the “final HPLC purity” value stood at 97%.

Staying with this data set, now noted: whole synthesis, h.p.l.c., scale of the general procedure 1.5 g resin, trifluoroacetate salt.
Take “N-[N^1 -[L-tyrosyl-L-phenylalanyl-L-tyrosyl]-4-methyl-1-oxo-2S-(6-oxo-5S-1,7-diazaspiro[4.4]nonan-7-yl)pentyl]-L-tryptophanamide, trifluoroacetate salt”: the “final HPLC purity” value was 99%. In the case of “N-[N^1 -[N-(acetyl)-L-lysyl-L-phenylalanyl-L-tyrosyl]-4-methyl-1-oxo-2S-(6-oxo-5S-1,7-diazaspiro[4.4]nonan-7-yl)pentyl]-L-tryptophanamide, trifluoroacetate salt”, the “final HPLC purity” value turned out to be 95%.

For the origin of these results see US5166136 (dated 1992).
